Assay results as given in PubChem BioAssay.
The list shows a part of the results. Entries with a potency or affinity are not part of this list. Where no call is shown, the source marks the result inconclusive.

Assays:
[1] = Drosophila SCA1 whole organism dose response for polyglutamine toxicity reduction (AID 1595); conditions: Drosophila SCA1 polyglutamine model, at 1 µM, stronger effect = higher value
PubChem AID 1597 = conditions: Drosophila SCA1 polyglutamine model, at 1 µM, stronger effect = higher value

Row | SMILES | suppression of toxicity [1] | suppression of toxicity (PubChem AID 1597)
1 | Cc1ccc(N(CC2=NCCN2)c2cccc(O)c2)cc1 | 0 | 10
2 | C=C1c2cccc(O)c2C(O)=C2C(=O)[C@]3(O)C(O)=C(C(N)=O)C(=O)[C@@H](N(C)C)[C@@H]3[C@@H](O)[C@H]12 | 0 | 6.42
3 | CC(C)CC1C(=O)N2CCC[C@H]2C2(O)O[C@](NC(=O)C3C=C4c5cccc6[nH]c(Br)c(c56)C[C@H]4N(C)C3)(C(C)C)C(=O)N12 (stereo not given in full) | 1.43 | 3.58
4 | CC(=O)OCC(=O)[C@@]1(O)CC[C@H]2C3CCC4=CC(=O)CCC4(C)[C@@]3(F)[C@@H](O)CC21C (stereo not given in full) | 0 | 2.86
5 | CO[C@@]1(NC(=O)CSCC#N)C(=O)N2C(C(=O)O)=C(CSc3nnnn3C)CSC21 (stereo not given in full) | 1.43 | 5
6 | Nc1nc(N)c2nc(-c3ccccc3)c(N)nc2n1 | 2.86 | 10
7 | CC(CCc1ccccc1)NCC(O)c1ccc(O)c(C(N)=O)c1 (stereo not given) | 1.43 | 2.85
8 | C[N+]1(C)C2CC[C@H]1CC(OC(=O)C(O)c1ccccc1)C2 (stereo not given in full) | 11.4 | 15
9 | C[C@H]1c2cccc(O)c2C(O)=C2C(=O)[C@]3(O)C(O)=C(C(N)=O)C(=O)[C@@H](N(C)C)[C@@H]3[C@@H](O)[C@@H]21 | 1.43 | 12.1
10 | CC(C)NCC(O)COc1cccc2[nH]ccc12 (stereo not given) | 2.85 | 6.43
11 | CCCc1cc(=O)[nH]c(=S)[nH]1 | 0 | 0.715
12 | CC1(C)O[C@@H]2CC3C4C[C@H](F)C5=CC(=O)CC[C@]5(C)C4[C@@H](O)C[C@]3(C)[C@]2(C(=O)CO)O1 (stereo not given in full) | 0 | 3.58
13 | CNCCCN1c2ccccc2CCc2ccccc21 | 2.85 | 2.15
14 | COc1ccc(CN(CCN(C)C)c2ccccn2)cc1 | 2.85 | 6.43
15 | CSc1ccc2c(c1)C(N1CCN(C)CC1)Cc1ccccc1S2 (stereo not given) | 1.43 | 2.15
16 | CC(C)(Oc1ccc(CCNC(=O)c2ccc(Cl)cc2)cc1)C(=O)O | 5.71 | 6.43
17 | CN(N=O)C(=O)N[C@@H]1[C@@H](O)[C@H](O)[C@@H](CO)O[C@@H]1O | 0 | 5.71
18 | CC(C)[N+](C)(CCOC(=O)C1c2ccccc2Oc2ccccc21)C(C)C | 4.29 | 9.29
19 | C=C[C@H]1CN2CC[C@H]1C[C@@H]2[C@@H](O)c1ccnc2ccc(OC)cc12 | 0 | 2.86
20 | CC1COc2c(N3CCN(C)CC3)c(F)cc3c(=O)c(C(=O)O)cn1c23 (stereo not given) | 1.43 | 5
21 | CSCCC(NC=O)C(=O)NC(Cc1ccccc1)C(=O)O (stereo not given) | 2.86 | 10
22 | C[N+](C)(C)CCO | 7.14 | 7.14
23 | O=C1NS(=O)(=O)c2ccccc21 | 7.14 | 5

Row | SMILES | suppression of toxicity [1] | suppression of toxicity (PubChem AID 1597)
24 | Clc1cc(Cl)c(OCC#CI)cc1Cl | 5.71 | 9.29
25 | OC(Cn1cncn1)(Cn1cncn1)c1ccc(F)cc1F | 0 | 0
26 | CN(C)CCC=C1c2ccccc2CCc2ccccc21 | 4.29 | 8.57
27 | O=C1CC2(CCCC2)CC(=O)N1CCCCN1CCN(c2ncccn2)CC1 | 8.57 | 11.4
28 | COc1ccc(C(=O)c2ccccc2)c(O)c1 | 11.4 | 11.4
29 | C[C@@H]1CC2C3CCC4=CC(=O)C=C[C@]4(C)[C@@]3(F)[C@@H](O)C[C@]2(C)[C@@]1(O)C(=O)CO (stereo not given in full) | 7.14 | 7.86
30 | O=c1n(CCCN2CCN(c3cccc(Cl)c3)CC2)nc2ccccn12 | 1.43 | 4.29
31 | COc1ccc(-c2cc(=O)c3c(O)cc(O[C@@H]4O[C@H](CO[C@H]5O[C@H](C)[C@@H](O)[C@H](O)[C@@H]5O)[C@@H](O)[C@H](O)[C@H]4O)cc3o2)cc1O | 0 | 0
32 | Cc1cccc(C)c1OCC(C)N (stereo not given) | 0 | 0.715
33 | CN(C(=O)CN(CCO)CC(=O)N(C)C(C)(C)Cc1ccccc1)C(C)(C)Cc1ccccc1 | 2.86 | 2.15
34 | O=C1NC(=O)C(c2ccccc2)(c2ccccc2)N1 | 8.57 | 0
35 | CO[C@]12C[C@@H](COC(=O)c3cncc(Br)c3)CN(C)[C@@H]1Cc1cn(C)c3cccc2c13 | 1.43 | 4.29
36 | NC(=O)NO | 1.43 | 1.43
37 | CC(C)NCC(O)c1cc(O)cc(O)c1 (stereo not given) | 10 | 11.4
38 | CN(C)CCN(Cc1cccs1)c1ccccn1 | 14.3 | 15.7
39 | CCN(CC)CCNC(=O)c1cc(Br)c(N)cc1OC | 4.29 | 7.86
40 | CC[C@]12CCCN3CCc4c(n(c5ccccc45)C(=O)C1)[C@@H]32 | 24.3 | 6.42
41 | CC(=O)OCC(=O)[C@@]12OC3(CCCC3)O[C@@H]1CC1C3CCC4=CC(=O)C=C[C@]4(C)[C@@]3(F)[C@@H](O)C[C@@]12C (stereo not given in full) | 0 | 0
42 | O=C1c2ccc(O)c(O)c2C(=O)c2c(O)ccc(O)c21 | 5.71 | 5.71
43 | CN(C)CCCN1c2ccccc2CCc2ccccc21 | 1.43 | 2.85
44 | CC1(C)C2CC[C@]3(C)C(C(=O)C=C4[C@@H]5C[C@@](C)(C(=O)O)CC[C@]5(C)CC[C@]43C)[C@@]2(C)CC[C@@H]1OC(=O)CCC(=O)O (stereo not given in full) | 0 | 0
45 | Cc1ccc(/C(=C\CN2CCCC2)c2ccccn2)cc1 | 4.29 | 4.29
